From PubChem BioAssay AID720591 (Broad Institute, 2013)
Hit rate of the full screen: of about 1,200 compounds, about 60 (5%) were called active. Roughly 1% stayed inconclusive and do not appear here.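 Rule for the calls: active = Decreasing signal and fitted IC50 at most twice the top valid tested dose; inconclusive = Bad fit or a level curve showing 30 to 70% inhibition; inactive = the rest.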 The list shows a part of the results. Entries with a potency or affinity are not part of this list.

By UniProt entry, the sequences of proteins in these tests, tags left out. Where a name states a change or a piece, a line headed by the entry shows the natural chain unless it says otherwise.
UniProt Q9NXA8: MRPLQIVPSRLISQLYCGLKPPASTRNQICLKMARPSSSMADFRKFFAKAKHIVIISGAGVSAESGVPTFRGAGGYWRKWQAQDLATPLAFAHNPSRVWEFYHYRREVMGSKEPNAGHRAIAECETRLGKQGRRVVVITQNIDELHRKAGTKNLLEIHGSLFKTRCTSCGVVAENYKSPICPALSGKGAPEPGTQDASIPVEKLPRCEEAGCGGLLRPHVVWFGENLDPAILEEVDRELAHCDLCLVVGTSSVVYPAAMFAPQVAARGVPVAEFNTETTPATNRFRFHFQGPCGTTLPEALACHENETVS

Target: NAD-dependent protein deacylase sirtuin-5, mitochondrial (Homo sapiens) (UniProt Q9NXA8)
Test: sirtuin-5 deacylation blockers, concentration series – biochemical, fluorescence imaging, cherry-pick, set 5, dose response (AID 720591);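 note: 0% = median of neutral control wells and -100% = median of positive control wells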
Details: Purified SirT5, succinyl-peptide AMC, trypsin-coupled fluorescence; at 15 µM (top of the series) unless noted

Activity change, negative = inhibition, inactive:
Cc1nc(CN(C)Cc2nc(Cc3cccc(F)c3)no2)cs1 -20.2%
c1ccc(CCn2nnc3ccccc32)cc1 16.6%
O=C(Nc1ccc(Br)cc1Cl)N1CCOCC1 9.12%
c1ccc(CN2CCC(N3CCC(N4CCCCCC4)CC3)CC2)cc1 -6.12%
CCOc1ccc(CCNC(=O)Cn2nc(C)c3c(C)n(-c4ccccc4)nc3c2=O)cc1 -21.5%
O=c1nc(-c2ccccc2)c2cc(Br)ccc2[nH]1 10.4%
CCOC(=O)CSC1=C(C#N)C(c2sccc2C)C(C(C)=O)=C(C)N1 (stereo unspecified) -2.3%
COc1ccc(C2CC(c3cccs3)=NN2C(=O)CN2CCCCC2)cc1 (stereo unspecified) -3.22%
CCOC(=O)c1c(C)[nH]c(C)c1C(=O)COC(=O)c1cc(OC)c(OC)cc1OC -19%
COc1ccc(Nc2oc(-c3ccco3)nc2S(=O)(=O)c2ccc(F)cc2)cc1 -8.04%
CCOC(=O)c1c(C)[nH]c(C)c1C(=O)COC(=O)c1cc2ccccc2cc1OC 8.57%
CCOc1ccc(CCNS(=O)(=O)c2cn(C)cn2)cc1OCC 25.9%
CCCCc1cc(=O)oc2cc(OCC(=O)NC3CCN(Cc4ccccc4)CC3)ccc12 1.28%
CCc1ccc(CN(C)C(=O)C2CCC(=O)N(Cc3ccccn3)C2)cc1 (stereo unspecified) 39.2% [at 7.5 µM]
NS(=O)(=O)c1ccc(F)c(C(=O)O)c1 -21.7%
COc1ccc(OC)c(NC(=O)CSc2nnc(CNC(=O)c3cccs3)o2)c1 13%
CCOc1ccccc1N(C)C(=O)c1cn(CC)c(=O)c2cc(OC)c(OC)cc12 -3.6%
O=S1(=O)CC(N2CCN(CCO)CC2)CN1Cc1cn(Cc2ccc(Cl)cc2)nn1 (stereo unspecified) -5.06%
CC(C)(C)NC(=O)C(c1ccco1)N(C(=O)c1csnn1)c1ccccc1 (stereo unspecified) -6.46%
CC(C)NC(=O)CSCc1cccc(Br)c1 -8.41%
COc1ccc(O)c(C(=O)c2cnc3c(c2)c(C)nn3CCO)c1 2.08%
N[C@@H](CO)c1nnc([C@H](Cc2ccc(O)cc2)NC(=O)C2CCNCC2)o1 -9.88%
COc1ccc(OCC(=O)Nc2ccc(NC(=O)c3cccs3)cc2)cc1 -14.9%
Cn1cnc2c(NCc3ccco3)ncnc21 -20.1%
Cc1c(C(N)=O)sc2ncn(CCOc3ccccc3)c(=O)c12 19.4%
CC(=O)NC(CC(=O)N1CCN(C(C)=O)CC1)c1ccccc1 (stereo unspecified) 2.36%
C=CCn1c(SCC(=O)c2ccc(O)c(O)c2)nnc1-c1ccc(C)cc1 -23.6%
CCOC(=O)c1cc(C(C)C)sc1NC(=O)COC(=O)CCS(=O)(=O)c1ccccc1 -24.3%
CCCC(=O)N1CCN(c2ccc(NC(=O)c3cccs3)cc2Cl)CC1 -12%
CCOCCCNCc1ccc(OCc2ccccc2C)c(OC)c1 7.01%
Cc1cccc(-c2noc(C(C)NC(=O)c3ccco3)n2)c1 (stereo unspecified) 3%
COc1cccc(OCc2ccc(Cn3nc(NC(=O)NCCc4ccc(OC)c(OC)c4)c4ccccc43)cc2)c1 -10.4%
CCCCN(CCCC)S(=O)(=O)c1c(C)[nH]c(=O)[nH]c1=O 3.94%
COc1ccccc1NC(=O)C1CCN(S(=O)(=O)c2ccc3c(c2)CC(C)N3C(C)=O)CC1 (stereo unspecified) -5.26%
CCOc1ccc2nc(SCC(=O)Nc3cc(C)on3)c(C)cc2c1 6.79%
COc1ccc(CCNC(=O)[C@H](C)NC(=O)N2CCn3c2nc2ccccc23)cc1OC 8.92%
N#Cc1cccc(NC(=O)Cn2cnc(S(=O)(=O)N3CCCCC3)c2)c1 0.087%
Cc1cccc(NC(=O)c2cccc(S(=O)(=O)Nc3c(C)n(C)n(-c4ccccc4)c3=O)c2)c1 -18.5%
CCCNC(=O)CCc1c(C)nc2c(c(C)nn2-c2ccccc2)c1C 22.2%
COC(=O)C1(Cc2cc(-c3ccc(OC)cc3OC)no2)CCN(C(=O)OC(C)(C)C)CC1 -19%
CCCc1c(C(=O)OCC)[nH]c2c1C(=O)CCC2 -33%

Quoted from the listing (three entries):
Activity change, negative = inhibition, inactive:
CC(C)(C)NC(=O)C(c1ccco1)N(C(=O)c1csnn1)c1ccccc1 (stereo unspecified) -6.46%
CC(C)NC(=O)CSCc1cccc(Br)c1 -8.41%
COc1ccc(O)c(C(=O)c2cnc3c(c2)c(C)nn3CCO)c1 2.08%
